PubChem BioAssay AID1053208 – Peter MacCallum Cancer Centre, 2014

- Purpose: 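Synthetic lethal interactions between gene loss and doxorubicin in osteosarcoma cells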 (primary screen)
- Cell system: mouse osteosarcoma cells, early-passage culture from an engineered mouse model of fibroblastic bone tumour
- Reagents: siRNA pool against mouse genes, 40 nM
- Time to read-out: about 120 h (48 h before drug, then 72 h with drug)
- Conditions: doxorubicin 100 nM for 72 h, roughly 30-40% inhibitory dose
- Measurement: 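Luminescent ATP signal taken as viability with or without 100 nM doxorubicin for 72 h; mean of two wells set against non-targeting siRNA and turned into robust z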
- Direction: viability z-score with doxorubicin: higher = more viable cells under doxorubicin; viability z-score without drug: higher = more viable cells with knock-down alone
- Call rule: 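a pool counts as active when its viability z-score with doxorubicin is -2 or below and its z-score without drug lies between -2 and 2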
Here is a random part of about 17,000 deposited reagents. In the full data, 788 (4.7%) got an active call. 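Calls rest on z-score classes alone; an extra cut-off of viability at most 70% of control was not applied to them.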 A number with no mark means an inactive call. Further read-outs or replicates are left out here.

Or4c101: combined z-score class = no change with or without drug; viability z-score with doxorubicin = 0.9; viability z-score without drug = 1.18
Rnf41: combined z-score class = no change with or without drug; viability z-score with doxorubicin = 0.34; viability z-score without drug = -0.51
Alb: combined z-score class = no change with or without drug; viability z-score with doxorubicin = -0.22; viability z-score without drug = 0.17
Or7e170: combined z-score class = no change with or without drug; viability z-score with doxorubicin = 0; viability z-score without drug = 0.17
Dmwd: combined z-score class = no change with or without drug; viability z-score with doxorubicin = -0.56; viability z-score without drug = -0.51
Hadha: combined z-score class = no change with or without drug; viability z-score with doxorubicin = -1.69; viability z-score without drug = -0.67
Lpcat3: combined z-score class = low cell count without drug only; viability z-score with doxorubicin = -0.9; viability z-score without drug = -2.02
Xrn2: combined z-score class = no change with or without drug; viability z-score with doxorubicin = 1.91; viability z-score without drug = 0.84
Lrrc31: combined z-score class = no change with or without drug; viability z-score with doxorubicin = -1.46; viability z-score without drug = 0.51
Utp20: combined z-score class = low cell count with and without drug; viability z-score with doxorubicin = -2.47; viability z-score without drug = -2.19
Akap8: combined z-score class = no change with or without drug; viability z-score with doxorubicin = 1.46; viability z-score without drug = -0.51
Cnot3: combined z-score class = no change with or without drug; viability z-score with doxorubicin = -1.01; viability z-score without drug = -1.85
Prkag2: combined z-score class = no change with or without drug; viability z-score with doxorubicin = 0; viability z-score without drug = 1.18
Eif2ak4: combined z-score class = low cell count with doxorubicin only (active); viability z-score with doxorubicin = -2.25; viability z-score without drug = -0.17
Nhp2: combined z-score class = no change with or without drug; viability z-score with doxorubicin = 0.11; viability z-score without drug = 1.18
Ttf2: combined z-score class = no change with or without drug; viability z-score with doxorubicin = 1.35; viability z-score without drug = 1.52
Rps6kb2: combined z-score class = no change with or without drug; viability z-score with doxorubicin = 1.57; viability z-score without drug = -1.18
Vamp3: combined z-score class = no change with or without drug; viability z-score with doxorubicin = -0.56; viability z-score without drug = 0.17
Mex3b: combined z-score class = no change with or without drug; viability z-score with doxorubicin = -0.11; viability z-score without drug = 0.51
Gask1a: combined z-score class = no change with or without drug; viability z-score with doxorubicin = 0.22; viability z-score without drug = 0.17
Or52h7: combined z-score class = no change with or without drug; viability z-score with doxorubicin = -0.22; viability z-score without drug = -0.17
Fau: combined z-score class = low cell count with and without drug; viability z-score with doxorubicin = -5.4; viability z-score without drug = -4.05
Ctnna3: combined z-score class = no change with or without drug; viability z-score with doxorubicin = 0.79; viability z-score without drug = 0.51
Ncf2: combined z-score class = no change with or without drug; viability z-score with doxorubicin = 1.46; viability z-score without drug = 0.17
Mettl2: combined z-score class = no change with or without drug; viability z-score with doxorubicin = -1.35; viability z-score without drug = -1.18
Dus1l: combined z-score class = no change with or without drug; viability z-score with doxorubicin = 0.11; viability z-score without drug = 1.01
Rnaseh2c: combined z-score class = no change with or without drug; viability z-score with doxorubicin = -0.45; viability z-score without drug = -0.51
E2f4: combined z-score class = high cell count without drug only; viability z-score with doxorubicin = 1.12; viability z-score without drug = 2.19
